Measured values: the supplement of paper PMC11348887
Where a name gives a salt, the structure may show the parent alone. This is one part of the list. Most values lie at the level of the controls, where differences are scatter.

These molecules were tested on hPSC-derived cortical neurons (WA09) (assay: KCl-induced FOS+/EGR-1+ double-positive nuclei fraction z-score (KCl minus unstimulated); higher = stronger activity-induced IEG response). Settings: 5 µM; treatment: days 7-14 after plating, readout day 21.

Structure (SMILES) | KCl-induced FOS+/EGR-1+ double-positive nuclei fraction z-score
C[C@@H](O[C@H]1OCCN(Cc2nn(P(=O)(O)O)c(=O)[nH]2)[C@H]1c1ccc(F)cc1)c1cc(C(F)(F)F)cc(C(F)(F)F)c1 [Fosaprepitant dimeglumine salt] | -0.225
CCOC(=O)CC(=O)N1CCSC1COc1ccccc1OC (stereo not given) [Moguisteine] | -0.292
CCOP(=O)(OCC)C(=Cc1cc(C(C)(C)C)c(O)c(C(C)(C)C)c1)P(=O)(OCC)OCC | -0.0197
CC(C)NCC(O)COc1ccc(CCOCC2CC2)cc1 (stereo not given) [Betaxolol HCl] | 2.16
O=C(Nc1ccncc1)c1cc([N+](=O)[O-])ccc1Cl | 0.365
N[C@H]1C[C@@H]1c1ccc(-c2cccc(O)c2)cc1 | 0.967
Clc1ccccc1C(c1ccccc1)(c1ccccc1)n1ccnc1 [Clotrimazole] | -0.486
Cc1cn(-c2cc(NC(=O)c3ccc(C)c(Nc4nccc(-c5cccnc5)n4)c3)cc(C(F)(F)F)c2)cn1 [Nilotinib (AMN-107)] | 0.0561
CC(C)NC[C@@H](O)COc1ccc(CC(N)=O)cc1 [(R)-(+)-Atenolol HCl] | 0.661
OCC(O)CN1CCN(c2ccccc2)CC1 (stereo not given) [Dropropizine] | -0.17
Cc1c(Cn2c(C)nc3c(C(=O)O)cc(N4CCOCC4)cc32)cccc1C(F)(F)F | 0.439
COc1ccc2c(c1)c(CC(=O)N1CCOCC1)c(C)n2C(=O)c1ccc(Cl)cc1 | 3.06
Cc1ccc(Cl)cc1N(CC(=O)Nc1c(F)cccc1F)S(C)(=O)=O | 0.107
CC(C)(C)c1cc(/C=C(\C#N)C(N)=S)cc(C(C)(C)C)c1O [Tyrphostin AG 879] | 1.52
Cc1nc2n(c(=O)c1CCN1CCC(c3noc4cc(F)ccc34)CC1)CCCC2 [Risperidone] | 0.964
CC/C(=C(\c1ccccc1)c1ccc(OCCN(C)C)cc1)c1ccccc1 [Tamoxifen Citrate] | -0.0725
CN(C)Cc1ccc(S(=O)(=O)n2ccc(/C=C/C(=O)NO)c2)cc1 [Resminostat] | 0.172
Cn1sc(=O)n(Cc2ccccc2)c1=O | 2.31
CC1CCN(CC[C@H]2CCCN2S(=O)(=O)c2cccc(O)c2)CC1 | 0.435
CC(C)(O)[C@H]1CC[C@@](C)([C@H]2[C@@H](O)C[C@@]3(C)[C@@H]4C[C@H](O[C@@H]5O[C@H](CO)[C@@H](O)[C@H](O)[C@H]5O)[C@H]5C(C)(C)[C@@H](O[C@@H]6OC[C@@H](O)[C@H](O)[C@H]6O)CC[C@@]56C[C@@]46CC[C@]23C)O1 [Astragaloside A] | 3.38

Random excerpt: 2 records from the list, in no set order.
Structure (SMILES) | KCl-induced FOS+/EGR-1+ double-positive nuclei fraction z-score
CC(C)NC[C@@H](O)COc1ccc(CC(N)=O)cc1 [(R)-(+)-Atenolol HCl] | 0.661
CN(C)Cc1ccc(S(=O)(=O)n2ccc(/C=C/C(=O)NO)c2)cc1 [Resminostat] | 0.172

Additional structures follow.

Structure (SMILES) | KCl-induced FOS+/EGR-1+ double-positive nuclei fraction z-score
Cc1ccc(O)c([C@H](CCN(C(C)C)C(C)C)c2ccccc2)c1 [Tolterodine tartrate] | -0.253
CCNC(=O)C#Cc1ccc2c(C(=Nc3ccc(CN(C)C)cc3)c3ccccc3)c(O)[nH]c2c1 | -0.924
COc1ccc(-c2oc3c(CC=C(C)C)c(O[C@@H]4O[C@H](CO)[C@@H](O)[C@H](O)[C@H]4O)cc(O)c3c(=O)c2O[C@@H]2O[C@@H](C)[C@H](O)[C@@H](O)[C@H]2O)cc1 [Icariin] | -1.13
N#Cc1ccc(-c2csc(NN=C3CCCC3)n2)cc1 [Remodelin] | -0.501
O=[N+]([O-])c1cn2c(n1)OC[C@@H](OCc1ccc(OC(F)(F)F)cc1)C2 | 2.2
CN(C)C/C=C/C(=O)Nc1cc2c(Nc3ccc(F)c(Cl)c3)ncnc2cc1O[C@H]1CCOC1 [Afatinib (BIBW2992)] | -0.154
CC(=O)c1cc2c(o1)C(=O)c1ccccc1C2=O [Napabucasin] | 3.82
NC(=O)c1noc([C@H](CCCC2CCCCC2)CC(=O)NO)n1 | 1.24
Cc1nc(C#Cc2ccnc(Cl)c2)c(C)n1-c1ccc(OC(F)(F)F)cc1 | -0.509
Cc1ccc(C(=O)Nc2ccc(CN3CCN(C)CC3)c(C(F)(F)F)c2)cc1C#Cc1cnc2[nH]ncc2c1 | -0.674
Cc1cc(N2CCOCC2)cc2[nH]c(-c3c(NC[C@@H](O)c4cccc(Cl)c4)cc[nH]c3=O)nc12 | -0.558
COc1cc(/C=C/C(=O)CC(=O)/C=C/c2ccc(O)c(OC)c2)ccc1O [Curcumin] | 0.71
C=CCc1cc(OC)c(O)c(C(=O)NCCO)c1 [Alibendol] | 0.176
CC(C)(C)c1[nH]cnc1/C=c1\[nH]c(=O)/c(=C/c2ccccc2)[nH]c1=O [Plinabulin (NPI-2358)] | 0.636
Nc1ncnc2c1c(I)cn2[C@@H]1O[C@H](CO)[C@@H](O)[C@H]1O [5-Iodotubercidin] | -1.04
CN(C)CCC=C1c2ccccc2C=Cc2ccccc21 [Cyclobenzaprine HCl] | 0.021
COc1cccc2c1C(=O)c1c(O)c3c(c(O)c1C2=O)C[C@@](O)(C(=O)CO)C[C@@H]3O[C@H]1C[C@H](N)[C@H](O[C@@H]2CCCCO2)[C@H](C)O1 [Pirarubicin] | -1.03
CC1=C(CC(=O)O)c2cc(F)ccc2/C1=C\c1ccc([S+](C)[O-])cc1 (stereo not given) [Sulindac] | 0.101
O=C(O)CCC(=O)Nc1ccc(S(=O)(=O)Nc2nccs2)cc1 [Succinylsulfathiazole] | 1.47
Nc1nc2n[nH]nc2c(=O)[nH]1 [Azaguanine-8] | 0.104
